Experimental data from the supplement of paper PMC12819154, “High-throughput peptide-centric local stability assay extends protein–ligand identification to membrane proteins, tissues and bacteria” (Nature Structural & Molecular Biology, 2025).
The other results are listed elsewhere or left out. Most entries show no effect beyond the scatter of the controls.

Protein sequences, listed by entry. Tags and fused reporters are not part of them. Lines headed by an entry give the natural chain unless they say otherwise; changes in a name come on top.
UniProt Q3TES0: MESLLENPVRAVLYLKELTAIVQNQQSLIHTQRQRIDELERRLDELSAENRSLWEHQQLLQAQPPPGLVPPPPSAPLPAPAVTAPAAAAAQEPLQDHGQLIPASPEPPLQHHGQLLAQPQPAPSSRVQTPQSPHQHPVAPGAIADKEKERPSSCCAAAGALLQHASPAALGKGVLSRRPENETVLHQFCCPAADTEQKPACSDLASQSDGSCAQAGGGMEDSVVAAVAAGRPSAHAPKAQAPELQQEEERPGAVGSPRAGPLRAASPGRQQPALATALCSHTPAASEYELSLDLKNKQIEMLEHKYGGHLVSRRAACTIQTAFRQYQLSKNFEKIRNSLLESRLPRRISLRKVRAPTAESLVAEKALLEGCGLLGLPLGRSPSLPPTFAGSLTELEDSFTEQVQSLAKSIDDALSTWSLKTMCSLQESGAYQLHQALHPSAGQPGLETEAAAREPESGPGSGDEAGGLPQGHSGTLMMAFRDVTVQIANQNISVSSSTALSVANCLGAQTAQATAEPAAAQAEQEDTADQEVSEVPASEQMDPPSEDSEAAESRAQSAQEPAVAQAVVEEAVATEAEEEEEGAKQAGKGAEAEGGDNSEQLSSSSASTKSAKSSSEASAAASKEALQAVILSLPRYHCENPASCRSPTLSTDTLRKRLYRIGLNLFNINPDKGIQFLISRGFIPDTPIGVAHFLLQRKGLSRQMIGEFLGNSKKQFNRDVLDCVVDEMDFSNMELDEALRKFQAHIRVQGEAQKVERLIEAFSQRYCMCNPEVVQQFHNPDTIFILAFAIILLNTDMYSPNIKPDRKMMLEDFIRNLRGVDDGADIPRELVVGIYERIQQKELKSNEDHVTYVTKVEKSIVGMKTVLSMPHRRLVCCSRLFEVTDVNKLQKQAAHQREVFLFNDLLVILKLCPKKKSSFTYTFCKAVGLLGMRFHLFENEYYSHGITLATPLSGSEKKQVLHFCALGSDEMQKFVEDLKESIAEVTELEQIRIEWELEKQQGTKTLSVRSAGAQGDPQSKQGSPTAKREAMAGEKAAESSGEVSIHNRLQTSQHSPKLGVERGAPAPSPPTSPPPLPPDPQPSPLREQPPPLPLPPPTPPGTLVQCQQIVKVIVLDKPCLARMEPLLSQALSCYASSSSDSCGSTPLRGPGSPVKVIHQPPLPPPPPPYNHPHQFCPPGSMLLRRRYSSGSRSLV
UniProt Q3U1T3: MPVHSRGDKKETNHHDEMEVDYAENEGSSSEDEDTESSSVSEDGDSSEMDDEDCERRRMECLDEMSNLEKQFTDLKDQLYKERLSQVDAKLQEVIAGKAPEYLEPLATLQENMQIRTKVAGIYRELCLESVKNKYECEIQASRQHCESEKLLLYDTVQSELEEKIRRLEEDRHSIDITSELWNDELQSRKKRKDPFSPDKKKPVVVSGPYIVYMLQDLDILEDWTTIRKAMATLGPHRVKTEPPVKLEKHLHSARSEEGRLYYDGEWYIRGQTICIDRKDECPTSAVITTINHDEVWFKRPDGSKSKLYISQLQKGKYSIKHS
UniProt Q3THK7: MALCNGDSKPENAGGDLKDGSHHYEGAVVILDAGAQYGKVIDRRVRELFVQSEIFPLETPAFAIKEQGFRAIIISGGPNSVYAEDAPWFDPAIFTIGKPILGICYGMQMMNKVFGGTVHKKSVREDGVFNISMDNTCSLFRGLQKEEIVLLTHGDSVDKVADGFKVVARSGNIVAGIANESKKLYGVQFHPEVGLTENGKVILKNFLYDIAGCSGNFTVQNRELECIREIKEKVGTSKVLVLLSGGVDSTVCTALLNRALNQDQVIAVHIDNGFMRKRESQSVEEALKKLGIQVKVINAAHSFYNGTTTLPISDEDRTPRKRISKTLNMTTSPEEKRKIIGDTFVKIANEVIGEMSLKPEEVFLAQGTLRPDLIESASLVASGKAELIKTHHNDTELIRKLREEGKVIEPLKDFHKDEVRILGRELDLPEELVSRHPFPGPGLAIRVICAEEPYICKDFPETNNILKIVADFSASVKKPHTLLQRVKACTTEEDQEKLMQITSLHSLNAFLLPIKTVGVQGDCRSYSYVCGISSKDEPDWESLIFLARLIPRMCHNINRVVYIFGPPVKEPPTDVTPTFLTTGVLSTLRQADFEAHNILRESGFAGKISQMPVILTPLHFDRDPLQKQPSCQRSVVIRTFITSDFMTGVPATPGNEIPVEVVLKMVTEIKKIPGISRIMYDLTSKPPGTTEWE
UniProt Q05816: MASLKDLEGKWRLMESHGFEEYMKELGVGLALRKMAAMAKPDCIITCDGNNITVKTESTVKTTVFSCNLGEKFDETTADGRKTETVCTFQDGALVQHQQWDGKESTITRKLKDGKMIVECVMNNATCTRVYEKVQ
UniProt Q3TEI4: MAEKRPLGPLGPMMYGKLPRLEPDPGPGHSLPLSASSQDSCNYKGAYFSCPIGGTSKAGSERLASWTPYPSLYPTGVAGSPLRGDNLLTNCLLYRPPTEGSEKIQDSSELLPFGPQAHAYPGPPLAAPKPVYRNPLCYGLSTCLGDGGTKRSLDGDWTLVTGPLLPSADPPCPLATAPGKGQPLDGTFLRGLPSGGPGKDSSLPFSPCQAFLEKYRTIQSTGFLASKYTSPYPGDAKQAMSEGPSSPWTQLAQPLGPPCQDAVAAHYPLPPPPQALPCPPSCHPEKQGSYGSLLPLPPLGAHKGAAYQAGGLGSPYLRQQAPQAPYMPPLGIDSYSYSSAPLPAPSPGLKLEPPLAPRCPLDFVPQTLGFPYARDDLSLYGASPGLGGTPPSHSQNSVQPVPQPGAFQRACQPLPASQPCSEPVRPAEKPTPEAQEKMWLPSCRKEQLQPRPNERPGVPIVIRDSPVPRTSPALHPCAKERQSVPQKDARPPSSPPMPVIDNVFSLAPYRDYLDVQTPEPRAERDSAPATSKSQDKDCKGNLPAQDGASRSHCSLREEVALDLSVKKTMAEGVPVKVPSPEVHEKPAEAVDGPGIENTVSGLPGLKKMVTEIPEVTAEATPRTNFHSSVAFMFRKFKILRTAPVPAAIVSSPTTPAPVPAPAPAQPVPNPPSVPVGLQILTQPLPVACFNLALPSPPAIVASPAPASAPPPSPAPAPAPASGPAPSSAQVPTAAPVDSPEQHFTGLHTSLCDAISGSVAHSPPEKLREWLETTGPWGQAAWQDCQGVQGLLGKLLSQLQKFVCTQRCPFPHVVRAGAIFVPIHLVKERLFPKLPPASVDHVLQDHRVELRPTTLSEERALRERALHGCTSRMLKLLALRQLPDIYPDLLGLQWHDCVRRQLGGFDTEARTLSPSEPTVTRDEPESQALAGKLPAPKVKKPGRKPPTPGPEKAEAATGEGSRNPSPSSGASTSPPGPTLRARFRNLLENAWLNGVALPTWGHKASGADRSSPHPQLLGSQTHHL
UniProt Q3THJ3: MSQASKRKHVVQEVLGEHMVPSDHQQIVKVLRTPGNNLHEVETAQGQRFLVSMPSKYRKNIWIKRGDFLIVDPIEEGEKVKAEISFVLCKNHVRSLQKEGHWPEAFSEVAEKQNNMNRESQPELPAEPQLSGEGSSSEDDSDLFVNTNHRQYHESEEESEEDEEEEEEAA
UniProt Q07113, whole entry: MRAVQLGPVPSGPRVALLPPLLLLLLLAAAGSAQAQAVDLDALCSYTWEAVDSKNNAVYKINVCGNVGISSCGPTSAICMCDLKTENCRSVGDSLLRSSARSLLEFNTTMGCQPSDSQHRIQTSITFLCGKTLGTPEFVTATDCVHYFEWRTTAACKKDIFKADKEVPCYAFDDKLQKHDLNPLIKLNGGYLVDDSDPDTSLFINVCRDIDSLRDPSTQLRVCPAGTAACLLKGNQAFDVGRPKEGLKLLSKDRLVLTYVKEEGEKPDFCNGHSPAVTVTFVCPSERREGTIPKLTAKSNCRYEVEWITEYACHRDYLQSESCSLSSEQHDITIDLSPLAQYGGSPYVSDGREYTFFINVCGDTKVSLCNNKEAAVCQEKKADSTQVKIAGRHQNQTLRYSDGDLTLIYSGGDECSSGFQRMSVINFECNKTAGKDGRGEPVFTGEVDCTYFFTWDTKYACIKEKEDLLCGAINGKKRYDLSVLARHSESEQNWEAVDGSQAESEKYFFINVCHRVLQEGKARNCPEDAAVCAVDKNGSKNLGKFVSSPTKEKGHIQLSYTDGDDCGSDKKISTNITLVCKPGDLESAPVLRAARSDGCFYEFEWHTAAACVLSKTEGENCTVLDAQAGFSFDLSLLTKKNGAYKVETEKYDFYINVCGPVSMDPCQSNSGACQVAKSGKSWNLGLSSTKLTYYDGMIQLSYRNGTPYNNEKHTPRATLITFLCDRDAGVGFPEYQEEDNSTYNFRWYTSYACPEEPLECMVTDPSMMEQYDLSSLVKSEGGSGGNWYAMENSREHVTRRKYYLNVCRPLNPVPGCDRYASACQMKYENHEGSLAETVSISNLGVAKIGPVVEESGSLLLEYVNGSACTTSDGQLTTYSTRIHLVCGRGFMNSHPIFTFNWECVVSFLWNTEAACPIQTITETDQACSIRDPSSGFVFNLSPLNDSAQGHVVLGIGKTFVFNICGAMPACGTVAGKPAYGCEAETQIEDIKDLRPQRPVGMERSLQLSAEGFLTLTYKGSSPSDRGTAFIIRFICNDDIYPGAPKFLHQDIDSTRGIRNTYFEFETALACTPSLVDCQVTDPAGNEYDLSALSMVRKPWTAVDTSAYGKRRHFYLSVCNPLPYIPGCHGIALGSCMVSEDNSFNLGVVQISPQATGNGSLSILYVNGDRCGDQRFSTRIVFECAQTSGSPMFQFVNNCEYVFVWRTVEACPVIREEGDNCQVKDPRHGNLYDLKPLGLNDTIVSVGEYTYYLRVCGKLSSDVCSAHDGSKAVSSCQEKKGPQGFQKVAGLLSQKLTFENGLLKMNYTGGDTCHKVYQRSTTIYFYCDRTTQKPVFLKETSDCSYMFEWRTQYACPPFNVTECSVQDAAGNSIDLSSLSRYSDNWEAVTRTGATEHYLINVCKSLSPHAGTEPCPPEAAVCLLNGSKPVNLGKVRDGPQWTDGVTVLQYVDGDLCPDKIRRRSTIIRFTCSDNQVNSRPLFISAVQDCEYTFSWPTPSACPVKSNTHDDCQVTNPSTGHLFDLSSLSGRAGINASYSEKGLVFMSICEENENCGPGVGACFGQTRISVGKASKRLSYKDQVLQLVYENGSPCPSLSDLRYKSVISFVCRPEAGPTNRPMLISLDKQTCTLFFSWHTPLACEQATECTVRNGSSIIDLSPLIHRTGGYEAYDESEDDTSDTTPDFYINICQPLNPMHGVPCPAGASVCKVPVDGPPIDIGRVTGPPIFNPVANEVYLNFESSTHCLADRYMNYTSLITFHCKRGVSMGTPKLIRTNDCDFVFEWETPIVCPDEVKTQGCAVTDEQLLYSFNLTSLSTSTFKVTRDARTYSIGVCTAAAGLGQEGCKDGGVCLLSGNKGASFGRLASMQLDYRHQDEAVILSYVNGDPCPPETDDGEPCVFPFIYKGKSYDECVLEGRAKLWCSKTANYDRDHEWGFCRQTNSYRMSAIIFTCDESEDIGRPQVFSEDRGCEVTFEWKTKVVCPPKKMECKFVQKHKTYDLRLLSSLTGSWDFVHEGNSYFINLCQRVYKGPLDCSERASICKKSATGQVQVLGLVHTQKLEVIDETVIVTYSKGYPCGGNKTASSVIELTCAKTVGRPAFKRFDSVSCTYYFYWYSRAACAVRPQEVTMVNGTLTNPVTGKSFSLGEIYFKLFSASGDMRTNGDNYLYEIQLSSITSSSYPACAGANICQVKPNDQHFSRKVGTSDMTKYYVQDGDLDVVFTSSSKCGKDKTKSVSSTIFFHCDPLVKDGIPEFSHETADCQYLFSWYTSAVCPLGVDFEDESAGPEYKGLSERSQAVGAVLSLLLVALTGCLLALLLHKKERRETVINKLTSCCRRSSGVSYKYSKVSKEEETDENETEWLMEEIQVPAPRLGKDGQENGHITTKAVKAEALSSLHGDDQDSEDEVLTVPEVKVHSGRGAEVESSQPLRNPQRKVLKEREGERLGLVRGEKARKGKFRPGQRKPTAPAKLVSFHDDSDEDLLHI
UniProt Q3U1G5: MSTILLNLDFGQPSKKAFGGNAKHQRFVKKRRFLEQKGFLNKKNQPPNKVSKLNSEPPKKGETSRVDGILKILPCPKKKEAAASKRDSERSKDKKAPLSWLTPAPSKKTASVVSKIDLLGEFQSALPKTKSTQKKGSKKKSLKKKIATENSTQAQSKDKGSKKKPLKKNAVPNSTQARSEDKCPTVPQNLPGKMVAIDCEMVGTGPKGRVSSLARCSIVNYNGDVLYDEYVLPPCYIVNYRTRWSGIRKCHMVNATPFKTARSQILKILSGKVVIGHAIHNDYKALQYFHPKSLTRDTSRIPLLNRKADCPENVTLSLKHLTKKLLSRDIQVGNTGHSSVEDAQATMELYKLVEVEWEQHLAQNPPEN

Compound: CN[C@@H]1C[C@H]2O[C@@](C)([C@@H]1OC)n1c3ccccc3c3c4c(c5c6ccccc6n2c5c31)C(=O)NC4 [staurosporine]
Assay: log2 fold change of tryptic peptide abundance, ligand vs vehicle (limited proteolysis) (log2 ratio); higher = more trypsin-susceptible (destabilized)
Details: ligand concentration: 20 uM; sample: mouse liver crude lysate; replicate design: treated separately

Target	log2 fold change
UniProt Q3U2P1 (peptide sequence: IFAMCQVK, peptide start residue: 921)	-0.506
UniProt Q03734 (peptide sequence: DLSVSQVVHK, peptide start residue: 349)	0.29
UniProt Q3B7Z2 (peptide sequence: ITSNAMINACRDFLMLAQTHSK, peptide start residue: 265)	-0.441
UniProt Q3TES0 (peptide sequence: VQGEAQKVER, peptide start residue: 615)	0.0211
UniProt Q3U1T3 (peptide sequence: VKTEPPVKLEK, peptide start residue: 239)	-0.251
UniProt Q3THK7 (peptide sequence: VIEPLKDFHK, peptide start residue: 407)	0.631
UniProt Q04447 (peptide sequence: GIWHNDNK, peptide start residue: 216)	0.274
UniProt Q05816 (peptide sequence: ASLKDLEGKWR, peptide start residue: 2)	0.274
UniProt Q08122 (peptide sequence: FTVAESCDR, peptide start residue: 20)	-0.666
UniProt Q3TVI4 (peptide sequence: AHGEFQQR, peptide start residue: 183)	0.333
UniProt Q09014 (peptide sequence: AGEEITQAQR, peptide start residue: 283)	0.279
UniProt Q2M3X8 (peptide sequence: LSQRPTAEELEQR, peptide start residue: 581)	-0.267
UniProt Q2HXL6 (peptide sequence: MGVSLIHLK, peptide start residue: 596)	0.273
UniProt Q05AH6 (peptide sequence: GTLDLQVIR, peptide start residue: 319)	0.542
UniProt Q2YFS3 (peptide sequence: AEIPAREPLETSEK, peptide start residue: 230)	-0.0279
UniProt Q02956 (peptide sequence: DMCGLHQQHPLTLK, peptide start residue: 46)	0.149
UniProt Q3TKT4 (peptide sequence: LTQVLNTHYVAPR, peptide start residue: 893)	0.361
UniProt Q3TEA8 (peptide sequence: YPSLGLER, peptide start residue: 193)	0.318

At a glance, part of the list above:
Target	log2 fold change
UniProt Q3TVI4 (peptide sequence: AHGEFQQR, peptide start residue: 183)	0.333
UniProt Q09014 (peptide sequence: AGEEITQAQR, peptide start residue: 283)	0.279
UniProt Q2M3X8 (peptide sequence: LSQRPTAEELEQR, peptide start residue: 581)	-0.267
UniProt Q2HXL6 (peptide sequence: MGVSLIHLK, peptide start residue: 596)	0.273
UniProt Q05AH6 (peptide sequence: GTLDLQVIR, peptide start residue: 319)	0.542
UniProt Q2YFS3 (peptide sequence: AEIPAREPLETSEK, peptide start residue: 230)	-0.0279
UniProt Q02956 (peptide sequence: DMCGLHQQHPLTLK, peptide start residue: 46)	0.149
UniProt Q3TKT4 (peptide sequence: LTQVLNTHYVAPR, peptide start residue: 893)	0.361

Additional records follow:

Target	log2 fold change
UniProt Q33DR3 (peptide sequence: INADLQPFIK, peptide start residue: 295)	-0.271
UniProt Q05921 (peptide sequence: SLHSMTRPMIGK, peptide start residue: 348)	-0.618
UniProt Q05909 (peptide sequence: LITQCNAK, peptide start residue: 1153)	-0.553
UniProt Q11136 (peptide sequence: ASVPFSGQK, peptide start residue: 485)	0.0369
UniProt Q3TEI4 (peptide sequence: SSPHPQLLGSQTHHL, peptide start residue: 1009)	-0.523
UniProt Q06770 (peptide sequence: LKDSFLADTK, peptide start residue: 132)	0.0836
UniProt Q04736 (peptide sequence: LTTVCPTVKPQTQGLAK, peptide start residue: 249)	0.519
UniProt Q04841 (peptide sequence: LADSEQQQTPK, peptide start residue: 71)	0.145
UniProt Q3TVI8 (peptide sequence: AVWKEHR, peptide start residue: 134)	-0.0485
UniProt Q3TKY6 (peptide sequence: NEKPEEEVKK, peptide start residue: 184)	-0.464
UniProt Q3THJ3 (peptide sequence: GDFLIVDPIEEGEKVK, peptide start residue: 66)	0.327
UniProt Q3U1F9 (peptide sequence: ADFAEYASVDR, peptide start residue: 219)	-0.138
UniProt Q07113 (peptide sequence: GAEVESSQPLRNPQR, peptide start residue: 2418)	-0.169
UniProt Q3TMH2 (peptide sequence: TVNLFPQYVKDEIK, peptide start residue: 397)	-0.112
UniProt Q07243 (peptide sequence: QEEACQCQCACRDSAK, peptide start residue: 628)	0.957
UniProt Q05793 (peptide sequence: LNWGHIPAHPR, peptide start residue: 442)	0.831
UniProt Q04887 (peptide sequence: EAVSQVLK, peptide start residue: 75)	0.0845
UniProt Q3U1G5 (peptide sequence: APLSWLTPAPSKK, peptide start residue: 96)	-0.136
